Sequences of proteins named here, by UniProt entry; tags and fusion partners are left off. A change or cut given only in a name is not applied to a line headed by its entry.
UniProt Q14676: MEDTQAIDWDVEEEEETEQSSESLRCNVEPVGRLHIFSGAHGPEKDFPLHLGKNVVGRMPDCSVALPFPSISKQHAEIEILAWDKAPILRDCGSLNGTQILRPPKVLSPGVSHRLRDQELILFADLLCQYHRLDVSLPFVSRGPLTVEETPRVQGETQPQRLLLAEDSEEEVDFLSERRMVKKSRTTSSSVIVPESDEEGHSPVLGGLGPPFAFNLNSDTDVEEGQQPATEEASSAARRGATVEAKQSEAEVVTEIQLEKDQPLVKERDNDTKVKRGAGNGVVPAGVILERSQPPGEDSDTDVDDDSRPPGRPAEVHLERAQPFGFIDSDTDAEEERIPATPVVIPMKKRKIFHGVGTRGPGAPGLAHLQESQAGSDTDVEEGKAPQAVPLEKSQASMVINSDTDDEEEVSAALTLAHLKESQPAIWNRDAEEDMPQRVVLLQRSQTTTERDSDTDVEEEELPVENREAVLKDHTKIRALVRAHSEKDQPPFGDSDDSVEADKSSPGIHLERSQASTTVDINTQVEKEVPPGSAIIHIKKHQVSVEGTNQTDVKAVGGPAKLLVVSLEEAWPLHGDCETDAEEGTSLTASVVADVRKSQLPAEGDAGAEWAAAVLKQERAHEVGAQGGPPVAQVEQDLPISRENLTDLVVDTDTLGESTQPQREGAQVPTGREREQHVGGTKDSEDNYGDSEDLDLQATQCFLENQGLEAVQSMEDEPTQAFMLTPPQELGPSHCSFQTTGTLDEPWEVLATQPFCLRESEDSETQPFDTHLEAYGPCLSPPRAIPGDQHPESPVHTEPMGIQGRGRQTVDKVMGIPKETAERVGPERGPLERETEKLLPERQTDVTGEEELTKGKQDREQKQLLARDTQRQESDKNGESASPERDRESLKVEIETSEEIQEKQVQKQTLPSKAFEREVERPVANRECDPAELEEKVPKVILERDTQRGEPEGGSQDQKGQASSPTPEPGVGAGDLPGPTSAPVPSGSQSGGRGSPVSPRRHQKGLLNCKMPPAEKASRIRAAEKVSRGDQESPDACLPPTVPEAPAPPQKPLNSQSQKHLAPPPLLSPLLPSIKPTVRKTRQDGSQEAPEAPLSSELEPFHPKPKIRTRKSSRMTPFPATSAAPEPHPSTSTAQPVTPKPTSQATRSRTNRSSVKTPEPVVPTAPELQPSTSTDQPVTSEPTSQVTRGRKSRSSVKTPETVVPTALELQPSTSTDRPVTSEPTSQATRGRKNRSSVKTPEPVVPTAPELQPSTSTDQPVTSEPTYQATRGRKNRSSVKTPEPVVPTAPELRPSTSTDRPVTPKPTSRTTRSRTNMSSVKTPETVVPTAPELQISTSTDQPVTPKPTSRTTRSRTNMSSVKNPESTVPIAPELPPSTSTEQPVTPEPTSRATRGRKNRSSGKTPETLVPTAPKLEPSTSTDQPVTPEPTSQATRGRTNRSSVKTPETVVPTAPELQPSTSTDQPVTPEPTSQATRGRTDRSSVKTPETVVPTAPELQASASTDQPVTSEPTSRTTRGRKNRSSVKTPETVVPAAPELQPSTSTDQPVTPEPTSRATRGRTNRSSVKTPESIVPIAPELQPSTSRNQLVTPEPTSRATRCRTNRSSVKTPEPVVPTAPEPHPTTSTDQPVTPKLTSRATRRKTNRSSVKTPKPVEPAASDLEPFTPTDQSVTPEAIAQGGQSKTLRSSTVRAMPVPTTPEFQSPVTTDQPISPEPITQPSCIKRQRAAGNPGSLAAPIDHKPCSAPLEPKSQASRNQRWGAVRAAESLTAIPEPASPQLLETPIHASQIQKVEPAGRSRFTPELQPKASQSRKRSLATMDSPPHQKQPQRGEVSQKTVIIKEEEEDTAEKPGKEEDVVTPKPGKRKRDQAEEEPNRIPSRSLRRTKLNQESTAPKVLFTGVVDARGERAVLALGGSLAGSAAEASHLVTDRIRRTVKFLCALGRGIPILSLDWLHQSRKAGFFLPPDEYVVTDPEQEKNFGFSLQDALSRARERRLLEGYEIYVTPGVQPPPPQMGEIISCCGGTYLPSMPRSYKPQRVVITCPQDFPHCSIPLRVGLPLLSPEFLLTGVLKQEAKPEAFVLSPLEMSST
UniProt P25205: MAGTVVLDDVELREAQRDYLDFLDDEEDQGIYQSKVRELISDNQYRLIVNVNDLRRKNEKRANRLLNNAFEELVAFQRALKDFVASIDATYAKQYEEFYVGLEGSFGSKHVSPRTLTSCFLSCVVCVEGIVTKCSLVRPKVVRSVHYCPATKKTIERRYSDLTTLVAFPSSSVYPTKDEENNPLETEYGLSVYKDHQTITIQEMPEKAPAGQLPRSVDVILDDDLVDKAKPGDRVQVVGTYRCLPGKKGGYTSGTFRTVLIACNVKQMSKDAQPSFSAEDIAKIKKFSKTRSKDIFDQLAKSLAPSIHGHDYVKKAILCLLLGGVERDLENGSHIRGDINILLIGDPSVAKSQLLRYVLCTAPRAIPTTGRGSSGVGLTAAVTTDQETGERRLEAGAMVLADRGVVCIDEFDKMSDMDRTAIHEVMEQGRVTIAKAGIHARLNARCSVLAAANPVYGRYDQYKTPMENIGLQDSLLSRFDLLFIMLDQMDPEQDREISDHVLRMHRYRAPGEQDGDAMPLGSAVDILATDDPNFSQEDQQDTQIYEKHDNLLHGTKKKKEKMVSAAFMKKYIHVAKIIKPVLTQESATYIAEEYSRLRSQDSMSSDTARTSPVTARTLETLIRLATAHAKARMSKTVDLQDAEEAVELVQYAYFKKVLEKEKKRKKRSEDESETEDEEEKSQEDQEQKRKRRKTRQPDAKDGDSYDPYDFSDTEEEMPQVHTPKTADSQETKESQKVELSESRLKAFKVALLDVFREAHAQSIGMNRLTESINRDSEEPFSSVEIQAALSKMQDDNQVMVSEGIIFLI
UniProt Q9BUE0: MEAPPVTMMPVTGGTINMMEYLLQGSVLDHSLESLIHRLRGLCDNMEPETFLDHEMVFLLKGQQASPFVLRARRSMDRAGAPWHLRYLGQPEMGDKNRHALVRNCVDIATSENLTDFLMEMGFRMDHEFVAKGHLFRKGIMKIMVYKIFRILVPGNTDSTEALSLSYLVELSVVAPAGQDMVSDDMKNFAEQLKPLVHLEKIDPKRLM
UniProt Q10469: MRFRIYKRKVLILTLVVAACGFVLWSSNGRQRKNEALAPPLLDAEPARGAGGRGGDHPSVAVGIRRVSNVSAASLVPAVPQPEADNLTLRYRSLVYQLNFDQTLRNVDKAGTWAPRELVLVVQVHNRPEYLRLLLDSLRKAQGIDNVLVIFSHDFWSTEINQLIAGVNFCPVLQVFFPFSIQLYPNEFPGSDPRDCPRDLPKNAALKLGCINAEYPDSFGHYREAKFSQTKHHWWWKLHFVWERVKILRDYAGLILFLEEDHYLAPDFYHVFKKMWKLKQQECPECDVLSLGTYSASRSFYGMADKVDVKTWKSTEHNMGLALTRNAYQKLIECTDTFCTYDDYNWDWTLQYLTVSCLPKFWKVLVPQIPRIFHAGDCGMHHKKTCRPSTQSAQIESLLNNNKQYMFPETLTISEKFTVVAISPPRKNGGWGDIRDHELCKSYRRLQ
UniProt Q9ULC4: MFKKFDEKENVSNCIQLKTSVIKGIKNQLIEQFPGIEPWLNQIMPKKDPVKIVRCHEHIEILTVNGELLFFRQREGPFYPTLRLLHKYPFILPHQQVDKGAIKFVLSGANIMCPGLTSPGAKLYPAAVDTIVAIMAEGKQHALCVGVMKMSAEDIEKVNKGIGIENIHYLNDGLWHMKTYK
UniProt O15553: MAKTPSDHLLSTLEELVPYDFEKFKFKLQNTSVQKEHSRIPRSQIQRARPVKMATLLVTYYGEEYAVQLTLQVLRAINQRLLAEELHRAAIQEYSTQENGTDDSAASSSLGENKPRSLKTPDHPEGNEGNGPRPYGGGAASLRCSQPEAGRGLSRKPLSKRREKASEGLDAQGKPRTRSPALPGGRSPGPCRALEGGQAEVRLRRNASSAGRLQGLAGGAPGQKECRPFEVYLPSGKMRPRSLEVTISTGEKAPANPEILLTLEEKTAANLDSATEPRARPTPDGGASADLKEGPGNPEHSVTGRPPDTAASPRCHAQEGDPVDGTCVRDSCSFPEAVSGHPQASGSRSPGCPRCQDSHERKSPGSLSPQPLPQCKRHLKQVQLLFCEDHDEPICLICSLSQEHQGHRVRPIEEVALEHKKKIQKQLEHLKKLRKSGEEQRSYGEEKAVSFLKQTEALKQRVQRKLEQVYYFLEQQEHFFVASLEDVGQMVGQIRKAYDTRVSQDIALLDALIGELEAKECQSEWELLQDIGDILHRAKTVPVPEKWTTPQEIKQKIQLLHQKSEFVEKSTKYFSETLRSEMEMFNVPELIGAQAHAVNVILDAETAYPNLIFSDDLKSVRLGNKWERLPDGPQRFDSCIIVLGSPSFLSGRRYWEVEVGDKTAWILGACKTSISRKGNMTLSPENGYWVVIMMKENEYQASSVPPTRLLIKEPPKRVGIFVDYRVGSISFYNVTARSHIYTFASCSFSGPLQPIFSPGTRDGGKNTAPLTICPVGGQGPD
UniProt P33993, whole entry, looked up: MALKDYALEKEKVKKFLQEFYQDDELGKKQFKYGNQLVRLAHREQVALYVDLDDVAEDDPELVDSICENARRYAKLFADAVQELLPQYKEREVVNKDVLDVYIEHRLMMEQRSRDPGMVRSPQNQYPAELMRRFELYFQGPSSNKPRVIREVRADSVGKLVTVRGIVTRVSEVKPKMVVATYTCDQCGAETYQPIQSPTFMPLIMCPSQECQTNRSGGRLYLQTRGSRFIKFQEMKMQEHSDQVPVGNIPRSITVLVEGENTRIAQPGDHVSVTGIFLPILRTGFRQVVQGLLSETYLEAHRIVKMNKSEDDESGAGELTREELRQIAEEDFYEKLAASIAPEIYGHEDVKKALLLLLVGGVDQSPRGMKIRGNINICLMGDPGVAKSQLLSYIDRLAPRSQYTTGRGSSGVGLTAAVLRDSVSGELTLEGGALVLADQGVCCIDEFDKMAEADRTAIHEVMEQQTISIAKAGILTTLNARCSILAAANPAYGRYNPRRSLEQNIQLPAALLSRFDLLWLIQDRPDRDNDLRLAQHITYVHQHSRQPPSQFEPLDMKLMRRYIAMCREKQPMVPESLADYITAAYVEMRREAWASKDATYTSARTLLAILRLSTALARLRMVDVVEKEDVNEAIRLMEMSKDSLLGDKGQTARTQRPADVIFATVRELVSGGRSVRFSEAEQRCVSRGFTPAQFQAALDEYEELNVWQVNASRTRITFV
UniProt Q7L2J0: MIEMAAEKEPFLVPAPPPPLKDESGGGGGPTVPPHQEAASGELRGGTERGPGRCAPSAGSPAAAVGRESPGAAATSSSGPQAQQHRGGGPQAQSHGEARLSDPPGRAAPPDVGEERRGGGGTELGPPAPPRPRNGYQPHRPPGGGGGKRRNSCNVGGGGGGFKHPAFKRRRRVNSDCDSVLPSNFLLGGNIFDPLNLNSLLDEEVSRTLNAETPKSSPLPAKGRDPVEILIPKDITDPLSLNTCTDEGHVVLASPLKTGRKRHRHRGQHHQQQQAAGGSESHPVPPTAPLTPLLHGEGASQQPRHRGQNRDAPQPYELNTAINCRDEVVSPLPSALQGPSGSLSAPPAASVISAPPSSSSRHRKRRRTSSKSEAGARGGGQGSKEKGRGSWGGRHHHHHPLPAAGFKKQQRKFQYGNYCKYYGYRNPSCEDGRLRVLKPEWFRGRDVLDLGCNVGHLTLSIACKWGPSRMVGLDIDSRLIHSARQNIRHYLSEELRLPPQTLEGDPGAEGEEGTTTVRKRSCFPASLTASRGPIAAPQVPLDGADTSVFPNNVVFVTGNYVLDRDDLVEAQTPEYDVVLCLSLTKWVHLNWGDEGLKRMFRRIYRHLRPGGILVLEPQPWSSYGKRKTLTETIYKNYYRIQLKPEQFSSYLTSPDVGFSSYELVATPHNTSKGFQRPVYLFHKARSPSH
UniProt P23368: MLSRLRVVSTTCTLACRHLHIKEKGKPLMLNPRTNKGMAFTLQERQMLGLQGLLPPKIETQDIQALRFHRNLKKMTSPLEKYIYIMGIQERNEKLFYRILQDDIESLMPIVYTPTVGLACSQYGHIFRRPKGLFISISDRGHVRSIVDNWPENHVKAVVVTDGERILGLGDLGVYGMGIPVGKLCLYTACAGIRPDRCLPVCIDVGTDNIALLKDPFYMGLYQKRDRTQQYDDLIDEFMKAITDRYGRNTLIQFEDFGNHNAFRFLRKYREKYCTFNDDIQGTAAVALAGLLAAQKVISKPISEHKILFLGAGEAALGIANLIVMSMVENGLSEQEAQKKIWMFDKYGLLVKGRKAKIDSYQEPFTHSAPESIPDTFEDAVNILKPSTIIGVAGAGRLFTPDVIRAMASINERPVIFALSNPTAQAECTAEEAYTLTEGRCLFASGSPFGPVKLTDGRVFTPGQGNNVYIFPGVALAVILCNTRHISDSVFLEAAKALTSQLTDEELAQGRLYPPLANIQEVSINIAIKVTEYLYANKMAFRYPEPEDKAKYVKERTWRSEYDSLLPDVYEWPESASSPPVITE

Some of the results follow.
Each target was assayed with CC1Cc2ccccc2N1C(=O)C1CCCN(C1)C(=O)CCl (mixture of isomers) [TRIM25 ligand 11 (diastereomer mixture)] (assay: probe-labelled cysteine peptide fold change vs DMSO (competition) (log2 fold change); higher = less target engagement (more negative = stronger competition)). Details: 50 µM; THP-1; incubation time: 4 h.
“MDC1_Q14676_128_LRDQELILFADLLCQYHR (UniProt Q14676)” was tested, and the “probe-labelled cysteine peptide fold change” value was 0.148.
In the case of “METAP1_P53582_194+202_SCCTSVNEVICHGIPDR (UniProt P53582)”, the “probe-labelled cysteine peptide fold change” value is reported as 0.221.
“METTL14_Q9HCE5_256+260_CEDICWIK (UniProt Q9HCE5)” was tested, and the “probe-labelled cysteine peptide fold change” value was -0.0762.
“MCM3_P25205_263_TVLIACNVK (UniProt P25205)” was tested, and the “probe-labelled cysteine peptide fold change” value was 0.0397.
For “MDC1_Q14676_128_DQELILFADLLCQYHR (UniProt Q14676)”, the “probe-labelled cysteine peptide fold change” value was 0.28.
With “MCM3AP_O60318_800_GVFCASEAEFQGYNVLLSLNK (UniProt O60318)” the “probe-labelled cysteine peptide fold change” value was 0.0181.
With “MED18_Q9BUE0_43_GLCDNMEPETFLDHEMVFLLK (UniProt Q9BUE0)” the “probe-labelled cysteine peptide fold change” value was 0.0536.
In the case of “MED30_Q96HR3_34_EVNTASLCR (UniProt Q96HR3)”, the “probe-labelled cysteine peptide fold change” value is reported as -0.17.
For “MGAT2_Q10469_440_DHELCK (UniProt Q10469)”, the “probe-labelled cysteine peptide fold change” value was 0.194.
“MCM6_Q14566_393_TTGEGTSLRGDINVCIVGDPSTAK (UniProt Q14566)” was tested, and the “probe-labelled cysteine peptide fold change” value was -0.0616.
With “MELTF_P08582_476_SCHAGFGSPAGWDVPVGALIQR (UniProt P08582)” the “probe-labelled cysteine peptide fold change” value was -0.0186.
With “MEN1_O00255_414_EAASLLEAGEERPGEQSQGTQSQGSALQDPECFAHLLR (UniProt O00255)” the “probe-labelled cysteine peptide fold change” value was -0.0122.
For “MEF2D_Q14814_41_AYELSVLCDCEIALIIFNHSNK (UniProt Q14814)”, the “probe-labelled cysteine peptide fold change” value was 0.427.
“MDN1_Q9NU22_57_DCTVLVGR (UniProt Q9NU22)” was tested, and the “probe-labelled cysteine peptide fold change” value was -0.031.
With “MCTS1_Q9ULC4_144_QHALCVGVMK (UniProt Q9ULC4)” the “probe-labelled cysteine peptide fold change” value was 0.0229.
“MEFV_O15553_395_QVQLLFCEDHDEPICLICSLSQEHQGHR (UniProt O15553)” was tested, and the “probe-labelled cysteine peptide fold change” value was 0.0572.
For “MCL1_Q07820_286_TINQESCIEPLAESITDVLVR (UniProt Q07820)”, the “probe-labelled cysteine peptide fold change” value was -0.583.
With “MCM3AP_O60318_588_AHQFEGDSFDSASEGSEGLGPCVLSLSTLIGTVAETSK (UniProt O60318)” the “probe-labelled cysteine peptide fold change” value was -0.204.
For “MGAT2_Q10469_386_KTCRPSTQSAQIESLLNNNK (UniProt Q10469)”, the “probe-labelled cysteine peptide fold change” value was -0.394.
“MCM7_P33993_378_GNINICLMGDPGVAK (UniProt P33993)” was tested, and the “probe-labelled cysteine peptide fold change” value was -0.127.
With “METTL13_Q8N6R0_617_SILTPEGVFILNLVCR (UniProt Q8N6R0)” the “probe-labelled cysteine peptide fold change” value was 0.206.
“MCM3_P25205_123_TLTSCFLSCVVCVEGIVTK (UniProt P25205)” was tested, and the “probe-labelled cysteine peptide fold change” value was -0.195.
“MCCC2_Q9HCC0_131_VSGVECMIIANDATVK (UniProt Q9HCC0)” was tested, and the “probe-labelled cysteine peptide fold change” value was 0.0756.
In the case of “MEPCE_Q7L2J0_419_FQYGNYCK (UniProt Q7L2J0)”, the “probe-labelled cysteine peptide fold change” value is reported as -0.0304.
For “METTL26_Q96S19_162_CRNPEWGLR (UniProt Q96S19)”, the “probe-labelled cysteine peptide fold change” value was 0.0473.
“METAP1_P53582_255_KLVQTTYECLMQAIDAVK (UniProt P53582)” was tested, and the “probe-labelled cysteine peptide fold change” value was 0.000754.
“ME2_P23368_274_YCTFNDDIQGTAAVALAGLLAAQK (UniProt P23368)” was tested, and the “probe-labelled cysteine peptide fold change” value was 0.0402.
With “MEPCE_Q7L2J0_463_GRDVLDLGCNVGHLTLSIACK (UniProt Q7L2J0)” the “probe-labelled cysteine peptide fold change” value was -0.0667.
With “METTL5_Q9NRN9_107+110_NAEEFELTNIDMVQCDVCLLSNR (UniProt Q9NRN9)” the “probe-labelled cysteine peptide fold change” value was -0.00432.
With “MCMBP_Q9BTE3_636_CVNGNEL (UniProt Q9BTE3)” the “probe-labelled cysteine peptide fold change” value was -0.134.
For “MCM5_P33992_197_CNTDQAGRPK (UniProt P33992)”, the “probe-labelled cysteine peptide fold change” value was 0.0921.
In the case of “MCM4_P33991_306_TSQLIPEMQEAFFQCQVCAHTTR (UniProt P33991)”, the “probe-labelled cysteine peptide fold change” value is reported as -0.0512.
With “MCM3_P25205_148_SVHYCPATK (UniProt P25205)” the “probe-labelled cysteine peptide fold change” value was -0.0398.
For “MCM3_P25205_446_CSVLAAANPVYGR (UniProt P25205)”, the “probe-labelled cysteine peptide fold change” value was -0.0713.
With “MCTS1_Q9ULC4_55_CHEHIEILTVNGELLFFR (UniProt Q9ULC4)” the “probe-labelled cysteine peptide fold change” value was 0.119.
In the case of “MCM3AP_O60318_1945_EQLQLSEATGTCLGER (UniProt O60318)”, the “probe-labelled cysteine peptide fold change” value is reported as 0.129.

Reference: the supplement of paper PMC12067093, “Discovery and optimisation of a covalent ligand for TRIM25 and its application to targeted protein ubiquitination” (Chemical Science, 2025)
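Also: competitive chemoproteomic profiling in live THP-1 cells with an iodoacetamide desthiobiotin (IA-DTB) probe, comparing probe-labelled peptide intensities in compound-treated cells against DMSO-treated controls.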
